According to PubChem BioAssay AID504408 (Broad Institute, 2011):
The campaign covered roughly 300,000 compounds. About 5,200 (1.7%) were called active. The inconclusive results got no clear call from the source; some entries with a clear call stand among them for comparison.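 The calls were made as follows: active = mean replicate activation of at least 50% with a set share of replicates each reaching 50%; inconclusive = only one of those two conditions met; inactive = mean below 50% and too few replicates reaching it.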

Assay: HSF-1 activators, primary screen, NIH3T3-HGL cells, MG132 stress, luminescence, single point (AID 504408);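 also: 0% = median of the neutral control wells and 100% = twice that signal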
Conditions: NIH3T3-HGL HSF-1 luciferase reporter, MG132, 8 h; at 9 µM; hits give high values; 100% = twice DMSO control signal

Row | Structure (SMILES) | activation
1 | CC(=O)Nc1ccc(-c2cc(NC(C)=O)n(-c3ccccc3)n2)cc1 | inactive: -2.83%
2 | CC1=CC(C)(C)N(C(=O)CNC2CCCC2)c2cc(C)ccc21 | inconclusive: 54.3%
3 | Nc1nnnn1/N=C\c1ccc(Cl)c([N+](=O)[O-])c1 | inconclusive: 50.5%
4 | CC(C)c1nnc(SCC(=O)NCCC2=CCCCC2)n1N | inactive: 2.05%
5 | COc1ccc(N2CCN(C(CNS(C)(=O)=O)c3ccco3)CC2)cc1 (stereo not given) | inactive: -7.82%
6 | O=C(NCCc1ccccc1)N1c2ccccc2Sc2ccccc21 | inconclusive: 51.6%
7 | O=C(Nc1cccc2ccccc12)c1onc2c1CCCC2 | inconclusive: 59.3%
8 | CC1CCN(C(c2nnnn2CCc2ccccc2)C(C)C)CC1 (stereo not given) | inactive: 4.51%
9 | Cn1c(-c2csc(-c3ccccc3)n2)n[nH]c1=S | inactive: 16.5%
10 | OC(CN1CCCCC1)Cn1c(C(F)(F)F)nc2ccccc21 (stereo not given) | inactive: 6.5%
11 | Cc1cnc(NC(=O)COc2ccc3c(c2)CCC3)s1 | inactive: 46%
12 | Cc1cccc(NCc2nc3ccccc3n2C)c1 | inactive: -11.4%
13 | C=CCn1c(CCCOc2ccc(Cl)cc2Cl)nnc1SCC(=O)Nc1nccs1 | inconclusive: 52%
14 | NNC(=O)c1ccc(OCC2CC(c3ccc(Cl)cc3)=NO2)cc1 (stereo not given) | inconclusive: 50.1%
15 | Cc1cc(/C=C(\C#N)C(=O)NCC2CCCO2)c(C)n1-c1ccc(Cl)cc1 (stereo not given) | inactive: 23%
16 | Cn1cnc2cc(NCc3ccccc3Cl)ccc21 | inactive: 20.2%
17 | CC1=NNC(=O)/C1=C\c1cn(-c2ccccc2)nc1-c1ccccc1 | inconclusive: 92.6%
18 | COCc1cc(C)[nH]c(=O)c1C(=O)NC12CC3CC(CC(C3)C1)C2 | inactive: -20.2%
19 | O=C(c1ccc(F)cc1)C(CN1CCOCC1)c1ccccc1 (stereo not given) | inactive: 10.5%
20 | Cc1ccc2c(c1)c1c3n2CCN(CC(O)CNC(C)C)C3CCC1 (stereo not given) | inactive: -0.998%

Given as tab-separated lines: entries from further up
Row	Structure (SMILES)	activation
13	C=CCn1c(CCCOc2ccc(Cl)cc2Cl)nnc1SCC(=O)Nc1nccs1	inconclusive: 52%
14	NNC(=O)c1ccc(OCC2CC(c3ccc(Cl)cc3)=NO2)cc1 (stereo not given)	inconclusive: 50.1%
15	Cc1cc(/C=C(\C#N)C(=O)NCC2CCCO2)c(C)n1-c1ccc(Cl)cc1 (stereo not given)	inactive: 23%
16	Cn1cnc2cc(NCc3ccccc3Cl)ccc21	inactive: 20.2%

(listing goes on)

Row | Structure (SMILES) | activation
21 | Cc1[nH]c2ccc(F)cc2c1CCN(Cc1cccnc1)C(=S)NC(C)(C)C | inactive: -3.45%
22 | Cc1ccc(N2CCN(C(=O)c3cn(CC4CCCCC4)nn3)C(C)C2)cc1 (stereo not given) | inconclusive: 51.2%
23 | COc1ccc(NC(=O)COc2cc(C)cc(C)c2)cc1S(=O)(=O)N1CCCCC1 | inactive: -23.3%
24 | Cc1cc(NC(=O)CCC(=O)N(CC(=O)NC2CCCC2)Cc2cccs2)no1 | inconclusive: 50.3%
25 | O=C(NC1CCCCC1)C(c1ccncc1)N(Cc1ccccc1)C(=O)c1ccc(-c2ccccc2)[nH]1 (stereo not given) | active: 55.5%
26 | CSc1nnc(CNS(=O)(=O)c2ccc(Cl)cc2)n1C | inactive: -10.7%
27 | CC(=O)c1cnc(Nc2cccc(C)c2)s1 | inactive: 16.7%
28 | COc1cc(-c2nnc3sc(Cc4ccc(Cl)cc4)nn23)cc(OC)c1OC | inconclusive: 57.2%
29 | Cc1ccc(-c2nc3ccccc3[nH]2)s1 | active: 51%
30 | Cc1ccc(-c2nc(CS(=O)CC(=O)NCCCc3ccccc3)c(C)o2)cc1 (stereo not given) | inactive: -7.12%
31 | CCc1nc2ccc(C(=O)N3CCN(c4ccc([N+](=O)[O-])cc4)CC3)cc2nc1CC | active: 60%
32 | CCCN(CCC)CCCNC(=O)CS(=O)Cc1nc(-c2ccc(OC)c(OC)c2)oc1C (stereo not given) | active: 54.6%
33 | COc1ccc(CN(C)CC(=O)NC(C)c2ccccc2)c(OC)c1 (stereo not given) | inconclusive: 56.4%
34 | CCOC(=O)c1c(-c2ccccc2)oc2ccc(OCC(O)CN(C)C)cc12 (stereo not given) | inactive: 19.2%
35 | COc1ccc(/C=C/C(=O)c2cc(Br)ccc2OC(=O)c2ccco2)cc1OC | inactive: 18.3%
36 | Clc1ccc(-c2csc(-c3ccncc3)n2)cc1 | active: 58%
37 | Cc1c(C(=O)Nc2cccc(F)c2)cnn1-c1ccccc1 | inconclusive: 53.4%
38 | Cc1ccc(S(N)(=O)=O)cc1NC(=O)c1ccc2c3c(cccc13)CC2 | inactive: 0.524%
39 | CC(=O)c1ccc(NC(=S)NNC(=O)NC2CCCCC2)cc1 | inactive: -15.8%
40 | CNC(=O)/C(C#N)=C/c1ccc(-c2ccc(Cl)cc2)o1 | active: 73.1%

Row | Structure (SMILES) | activation
41 | COc1ccc(NC(=O)/C(C#N)=C/c2ccc(Br)o2)cc1 | inactive: 10.9%
42 | CCOC(=O)c1c(C)oc2c1c1c(c3ccccc32)OCN(CCCC(=O)O)C1 | active: 56.7%
43 | CC(=O)CSc1ncnc2c1cnn2-c1ccccc1 | inconclusive: 50.9%
44 | Cc1csc(SCC(=O)NC(=O)NC2CCCC2)n1 | inconclusive: 50.3%
45 | CCc1ccc2c(c1)[C@]1(C(=O)N2)[C@@H]2C(=O)N(Cc3ccccc3)C(=O)[C@@H]2[C@@H]2CCCN21 | inconclusive: 54.6%
46 | CCOc1ccc(NC(=S)N(Cc2ccc(Cl)cc2)Cc2ccco2)cc1 | active: 176%
47 | CC(/C=N/NC(=O)c1ccco1)=C\c1ccccc1 | active: 55.1%
48 | Brc1ccc(-c2noc(CCc3ccccc3)n2)o1 | inconclusive: 50.8%
49 | COc1ccc(NC(=O)c2nc3ccccc3s2)cc1 | inconclusive: 53.8%
50 | COc1ccc(Nc2oc(-c3ccc(Cl)cc3)nc2C#N)cc1 | inconclusive: 51.8%
51 | COc1cc(Cl)cc(/C=C/c2ccc3ccccc3n2)c1OC(C)=O | active: 183%
52 | O=C(N/N=C/c1ccccc1O)C1(O)c2ccccc2-c2ccccc21 | inactive: 16.4%
53 | Cc1c(NS(=O)(=O)c2ccc(NC(=O)CCC(=O)O)cc2)c(=O)n(-c2ccccc2)n1C | inconclusive: 54.4%
54 | CCOc1cc(/C=C\[N+](=O)[O-])ccc1OCC(=O)N1CCOCC1 | active: 310%
55 | Cc1cc([N+](=O)[O-])ccc1NC(=O)c1cccc(NC(=O)C(C)C)c1 | active: 57.9%
56 | O=C(/C=C/c1ccc(O)cc1)c1ccc(O)cc1O | inconclusive: 53.4%
57 | Cc1noc2ncnc(Sc3ccc(Cl)cc3)c12 | active: 71.6%
58 | Cc1cccc(Nc2nc(N)nc(CSC(=S)N3CCOCC3)n2)c1 | inconclusive: 50.1%
59 | Cc1c(C(=O)N/N=C/c2cccnc2)nnn1-c1nonc1N | inactive: -6.42%
60 | CC(=O)/C(=N/Nc1ccc(C)cc1)Sc1nnc(CCc2ccccc2)n1-c1ccccc1 | inconclusive: 54.6%
